PubChem BioAssay AID1259425, University of Nebraska Medical Center, 2018
Assay: 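Compare each knockdown with KSR1 silencing using changes in marker transcripts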 (primary screen). Cell system: HCT116 human colon cancer cells. Knock-down reagent: siRNA pool against human genes, 50 nM siRNA. Measurement: 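mRNA of six signature genes measured together by branched-DNA assay after 50 nM siRNA pool, blank removed, divided by geometric mean of two housekeeping genes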. Scale: BNIP3L mRNA: higher = more BNIP3L transcript after knockdown.
This is an unselected part of about 14,000 reagents tested. Not all columns of the deposit are shown. Not stated in the record: the time to read-out.

Gene	BNIP3L mRNA, set 1
INA	0.196
ZFYVE28	0.0631
PPP2R3C	0.102
VEGFD	0.153
NSD1	0.0879
SASH1	0.109
RAF1	0.148
SMARCA2	0.0752
ALG6	0.096
SARS2	0.0601
IL4R	0.0478
BAGE2	0.202
BAGE3	0.205
ZSCAN26	0.232
FOSB	0.0951
TPD52L2	0.0937
PCDHGB7	0.0795
SLC37A3	0.164
CD34	0.0479

Already shown: entries from further up.
Gene	BNIP3L mRNA, set 1
IL4R	0.0478
BAGE2	0.202
BAGE3	0.205
ZSCAN26	0.232

Further reagents:
Gene	BNIP3L mRNA, set 1
SLC38A7	0.0741
SLC9A3-OT1	0.0943
CEP72	0.319
SEC62	0.201
ALOX15B	0.0695
PRDM11	0.188
BMP10	0.183
CST5	0.152
ABCG1	0.154
TXNDC5	0.0683
ZNF226	0.185
GALK2	0.108
TMEM107	0.256
ITGAX	0.0619
MTBP	0.052
GTPBP4	0.196
MON1B	0.129
MAGEA10	0.0984
MRGBP	0.0578
PGAP6	0.1
GPR84	0.156
ZSCAN10	0.0378
RARS2	0.246
G3BP1	0.0508
SEC11A	0.248
TADA2A	0.111
PIEZO2	0.0716
MMP1	0.112
GYPB	0.0953
PYGL	0.032
TMEM132B	0.115
